Some of the results follow. The main result of the screen is listed elsewhere. These columns were measured beside it and carry no call. The list favours compounds with an active or inconclusive main result. The note in brackets gives the kind of curve behind each potency; many fits are weak.
Test: qHTS Assay for Lipid Storage Modulators in Drosophila S3 Cells;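 for cell number change: cells counted by Cell Tracker Red CMTPX staining in the red channel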
Conditions: BODIPY lipid droplet fluorescence, 18-24 h; for cell number change: measured here: cell count max response, cells fed with added oleic acid
In short: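 Laser-scanning cytometry quantifies lipid droplet accumulation (500–530 nm total intensity; droplet/cell object ratio) in oleic acid-fed (400 uM added) Drosophila S3 cells treated with a concentration series. 20 uM Triacsin C defined 100% inhibition.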

[1] = measured here: cell number channel AC50, cells fed with added oleic acid
[2] = measured here: lipid fluorescence (Fed channel) AC50, cells fed with added oleic acid

Compound | AC50 [1] | cell number change | AC50 [2]
Brc1cccc(-c2nnco2)c1 | 0.82 µM [falling, single point] | – | –
CC(C)(C)c1ccc(C(=O)NCC(=O)NCc2ccccn2)cc1 | – | -19.4% | 0.184 µM [falling, full curve, poor fit]
CCC(C)Sc1ccc([C@H]2N[C@@](CC(C)C)(C(=O)OC)[C@H]3C(=O)N(CC)C(=O)[C@@H]23)cc1 (some centres not stated) | 18.4 µM [falling, partial curve, poor fit] | -37.4% | 13 µM [falling, partial curve, poor fit]
Cc1cc(C)nc(NC(=O)c2cccc([N+](=O)[O-])c2C)n1 | 32.6 µM [rising, partial curve, poor fit] | 49.5% | 29.1 µM [rising, single point]
CCOC(=O)C1C(c2ccc(O)cc2)NC(=O)NC1(O)C(F)(F)F (configuration not stated) | – | -12.9% | –
CC(=O)Nc1ccc(S(=O)(=O)Nc2ccc3c(c2)OCO3)cc1 | – | 2.63% | 35.5 µM [falling, single point]
CCc1ccccc1N(CC(=O)NC1CCCCC1)C(=O)CCC(=O)Nc1ccccn1 | – | – | 0.731 µM [falling, full curve, poor fit]
CN(Cc1cccs1)C(=O)/C=C/c1ccccc1[N+](=O)[O-] | 8.2 µM [rising, partial curve] | 56% | 0.517 µM [rising, full curve]
CCCCC(C(=O)OCC(=O)c1ccc(OC)cc1)N1C(=O)c2ccccc2C1=O (configuration not stated) | – | -21.2% | 16.4 µM [falling, single point]
CCn1nc(C(=O)Nc2nc3ccc(C)cc3s2)c2ccccc2c1=O | 0.517 µM [rising, full curve] | 34.7% | –
CC(C)c1ccc(NC(=O)CSc2n[nH]c(=O)n2-c2cccnc2)cc1 | – | -3.78% | 29.1 µM [rising, single point]
COc1ccc(C(=O)Nc2nnc(S(=O)(=O)Cc3ccccc3)s2)cc1 | – | 20.6% | 29.1 µM [falling, single point]
S=c1[nH]c2ccccc2o1 | – | – | 0.103 µM [falling, full curve, poor fit]
CCOc1ccccc1NC(=O)C1=C(C)NC(=O)NC1c1cccc(OC)c1OC (configuration not stated) | – | 60.8% | 4.11 µM [rising, full curve]
COCCNS(=O)(=O)c1ccc(-c2ccc(C)cc2)cc1 | – | 4.77% | –
CCCOc1ccc(CSc2nnc(CCC)n2N)cc1 | – | 0.0568% | 4.11 µM [rising, full curve]
CN1C(=O)C(C)(C)c2cc(S(=O)(=O)NCC3CCC(C(=O)NC4CCCCC4)CC3)ccc21 (configuration not stated) | – | 13.4% | 29.1 µM [falling, single point]
Cn1c(CC(=O)Nc2ccccc2F)nnc1SCC(=O)N1CCOCC1 | – | 22.1% | –
CCOc1ccc(CCNC(=O)CCNC(=O)c2ccccc2Cl)cc1OCC | – | 6.74% | 7.31 µM [falling, partial curve]

Compound | AC50 [1] | cell number change | AC50 [2]
CS(=O)(=O)c1ccc(C(=O)OCc2nnc(-c3ccccc3)o2)cc1[N+](=O)[O-] | 0.00411 µM [rising, partial curve, poor fit] | – | 29.1 µM [falling, single point]
COc1ccccc1NC(=O)c1ccc(NC(=O)CSc2nnnn2C)cc1 | 1.84 µM [rising, partial curve] | – | 1.84 µM [rising, partial curve]
O=C1CC(C(=O)Nc2ccccc2C(=O)O)C(c2ccccc2)O1 (configuration not stated) | 25.9 µM [rising, partial curve] | 80.8% | –
Cc1cc(NC(=O)c2ccc([N+](=O)[O-])cc2Cl)ccc1NC(=O)c1ccco1 | 4.11 µM [rising, single point] | 26.3% | 4.61 µM [rising, full curve, poor fit]
COc1ccc(Cl)cc1NC(=O)C(C)N1CCN(c2ccccn2)CC1 (configuration not stated) | – | 14.3% | 20.6 µM [rising, single point]
CCOC(=O)c1nnn(-c2nonc2N)c1CN(CC)CC | – | 10.6% | 29.1 µM [falling, partial curve, poor fit]
Cc1cccc(C)c1N=C1C(=O)Nc2ccccc21 | 16.4 µM [falling, single point] | -47% | 18.4 µM [falling, single point]
COc1ccc(OCCN2CCN(C(=O)c3ccc(OC(F)F)c(OC)c3)CC2)cc1 | – | 21.7% | –
Cc1cc(/C=C2/NC(=O)N(Cc3ccccc3F)C2=O)c(C)n1C(C)C | – | – | 2.59 µM [rising, full curve]
CC1CCN(C(=O)COC(=O)CSc2ccc(C(N)=O)cc2[N+](=O)[O-])CC1 | – | – | 0.13 µM [falling, full curve, poor fit]
CC(=O)N1N=C(c2ccc(C(C)(C)C)cc2)OC1(C)C | 20.6 µM [falling, single point] | -35.7% | 16.4 µM [falling, partial curve]
COCCn1c(C)cc(C2=NNC(=Nc3ccccc3F)SC2)c1C | – | -2.02% | –
Cn1c(-c2ccc(F)cc2)cnc1SCC(=O)NNC(=O)Cc1ccccc1 | – | -12.4% | 0.00411 µM [falling, full curve, poor fit]
CCN(CC)S(=O)(=O)c1ccc2c(c1)c(=O)c(C(=O)N1CCOCC1)cn2C | – | -6.41% | 4.11 µM [falling, full curve, poor fit]
CS/C(=N\S(=O)(=O)c1ccc(Cl)cc1)c1ccccc1 | 18.4 µM [falling, partial curve, poor fit] | -102% | 23.1 µM [falling, partial curve]
O=S1OC(c2ccccc2)c2cc(Cl)ccc21 (configuration not stated) | – | -20.5% | 3.66 µM [rising, single point]
COC(=O)C(Cc1ccc(O)cc1)NC(=O)c1ccc2c(c1)OCCO2 (configuration not stated) | – | 10.8% | 6.51 µM [rising, partial curve, poor fit]
Cc1cccc(NC(=O)CSc2nc(N)c(NC(=O)c3ccccc3F)c(=O)[nH]2)c1 | 6.51 µM [falling, single point] | -11.9% | 29.1 µM [falling, single point]

A few values from the entries so far.
Value of O=C1CC(C(=O)Nc2ccccc2C(=O)O)C(c2ccccc2)O1 (configuration not stated) under cell number change: 80.8%
Value of Cc1cccc(C)c1N=C1C(=O)Nc2ccccc21 under AC50 [1]: 16.4 µM [falling, single point]
